According to patent publication US6656972B2, “Control of pain with endogenous cannabinoids” (Neurosciences Research Foundation, Inc., priority 1998, dated 2003):

Assay: Isotope dilution GC/MS of endogenous anandamide and PEA in rat paw skin
Conditions: n=8, means±s.e.m.

SMILES	endogenous amount in rat paw skin
CCCCCCCCCCCCCCCC(=O)NCCO [PEA, palmitylethanolamide]	692±119 pmol per g of tissue
CCCCC/C=C\C/C=C\C/C=C\C/C=C\CCCC(=O)NCCO [anandamide, arachidonylethanolamide]	49±9 pmol per g of tissue
